Assay results published in PubChem BioAssay AID488835 (Broad Institute, 2010).
In all, about 1,400 compounds went through this assay and about 140 (10%) were called active.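 The calls were made as follows: active = Half-maximal inhibitory dose from the fit at or below ten times the top valid tested dose; inconclusive = Invalid fit, or flat curve showing 30 to 70% inhibition; inactive = the rest.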 Only a part is listed here, and it is no random draw. Results with a measured potency or affinity are listed apart.

Sequences of proteins named here, by UniProt entry; tags and fusion partners are left off. Residues count along the entry.
UniProt Q9H3R0, 1-420 limits assumed: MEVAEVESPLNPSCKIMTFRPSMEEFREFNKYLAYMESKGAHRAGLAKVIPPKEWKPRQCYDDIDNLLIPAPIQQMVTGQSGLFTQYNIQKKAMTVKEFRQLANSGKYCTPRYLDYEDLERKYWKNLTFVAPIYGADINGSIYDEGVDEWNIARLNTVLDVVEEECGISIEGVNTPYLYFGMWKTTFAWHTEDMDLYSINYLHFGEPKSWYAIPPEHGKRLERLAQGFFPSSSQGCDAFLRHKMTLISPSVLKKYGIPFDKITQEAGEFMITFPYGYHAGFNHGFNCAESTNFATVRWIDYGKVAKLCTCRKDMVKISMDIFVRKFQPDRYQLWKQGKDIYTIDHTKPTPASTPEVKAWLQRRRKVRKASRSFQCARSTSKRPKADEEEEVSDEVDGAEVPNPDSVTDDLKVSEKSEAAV

biological target: Lysine-specific demethylase 4C (Homo sapiens) (UniProt Q9H3R0); experiment: inhibition of JMJD2C H3K9me3 demethylation – biochemical, DELFIA europium, cherry-picked samples, dose response (AID 488835); conditions: GST-JMJD2C(1-420); at 6 µM (top of the series) unless noted;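 also: signal is the H3K9me2 demethylation product detected by a dimethyl-specific antibody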

Activity change, negative = inhibition, inactive:
COc1ccc(OCC(=O)N2CCC3(CC2)CC(=O)c2ccccc2O3)cc1 12.9%, NC(=O)COc1cccc2cccnc12 3.24%, COc1ccc(CCNC(=O)c2ccc3c(c2)NC(=O)C(N2CCOCC2)S3)cc1OC (stereo unspecified) -0.672%, CC(C)NC(=O)Nc1cccc2c1O[C@H](CN(C)C(=O)NC1CCCCC1)[C@H](C)CN([C@H](C)CO)C2=O -3.03%, O=C(Nc1cccc(Cl)c1)NC1CCN(C2CCCCC2)C1 (stereo unspecified) 4.68%, Cc1ccc(S(=O)(=O)Nc2ccc3c(c2)C(=O)N([C@H](C)CO)C[C@H](C)[C@@H](CN(C)Cc2ccccc2)O3)cc1 9.34%, CSc1nc(N)nc2c1ncn2CC(=O)NCCNc1ccc([N+](=O)[O-])cn1 -0.036%, CNCCNC[C@H](Cc1cccc2ccccc12)NCCc1ccccc1 0.39%, COc1ccccc1N1CCN(c2nc3c(C)cccn3c(=O)c2C=O)CC1 -0.776%, COC(=O)CSC1=C(C#N)C(c2ccsc2)CC(=O)N1 (stereo unspecified) -0.00107%, C/C(=N\NC(=O)c1ccncc1)c1ccc(N(C)C)cc1 0.615%, CC[C@@H]1CCCCc2ccccc2[C@@H](C(=O)C[C@@H](O)CC(C)=O)OC1=O 1.94%, Cc1ccc(NC2=NCC(=O)N2Cc2ccc3c(c2)OCO3)c(C)c1 -0.634%, CCCC(CCC)C(=O)Nc1cccc(-c2cn3c(n2)SCC3)c1 8.47%, COc1cccc(NC(=O)N2CCN(c3cccc(C)c3)C(C)C2)c1 (stereo unspecified) 8.49%, O=c1c(O)cccc2cc(O)c(O)c(O)c12 -50%, Fc1ccc(-c2csc(Nc3ccccn3)n2)cc1 -16.8%, O=C(Cc1sc(-c2ccccc2)nc1-c1ccccc1)Nc1ccccc1 2.22%, COc1ccc(CC(=O)Nc2ccc(/C(C)=N/NC(=O)c3cccc([N+](=O)[O-])c3)cc2)cc1 -4.82%, CCOc1cccc(C2C(C(=O)c3ccco3)=C(O)C(=O)N2Cc2ccncc2)c1 (stereo unspecified) -1.49%, O=C(CSc1nnc(CNC(=O)c2cccs2)o1)c1ccccc1 3.92%, Cc1ccc(/C=N\NC(=O)c2cc([N+](=O)[O-])cc([N+](=O)[O-])c2)o1 5.01%, O=C(O)CCCNC(=O)c1cccc(C(=O)NCCCC(=O)O)n1 0.42%, O=[N+]([O-])c1ccccc1N/N=C\c1ccccc1Cl -1.36%, O=C(COC(=O)C1(c2ccccc2F)CCCC1)Nc1ncc(C(F)(F)F)cc1Cl -1.64%, Cc1ccc(S(=O)(=O)N2[C@@H](c3ccc(Cl)c(Cl)c3)C(C(=O)O)=C[C@H]2C(C)(C)C)cc1 0.0975%, CCCCNC(=O)OCCNC(=O)Oc1cccc(C)c1 4.46%, Cc1ccc(OC(=O)c2ccc3nc(C)sc3c2)cc1 -0.0189%, COc1ccc(C)cc1NC(=O)CN(C)S(=O)(=O)c1ccc2c(c1)CC(C)N2C(C)=O (stereo unspecified) -0.962%, CNC(=O)C1=NCCCc2cc(OC)c(OC)cc21 2.61%, Cc1cccc(C(=O)N/N=C/C(C)Cc2ccc3c(c2)OCO3)c1 (stereo unspecified) -0.865%, C[C@H]1CN([C@@H](C)CO)C(=O)Cc2cc(NS(=O)(=O)c3cccs3)ccc2O[C@H]1CN(C)S(=O)(=O)c1cn(C)cn1 6.73%, Cc1nn(C)c(N)c1C(O)(c1nccn1C)C(F)(F)F (stereo unspecified) -4.61%, Cc1ccc(OCC(=O)Nc2ccccc2Sc2ccccc2)c([N+](=O)[O-])n1 -9.33%, COc1cccc(CNC(=O)c2cc3c(cc2Cl)N2CCCCCC2=NS3(=O)=O)c1 3.42%, CC1(C)[N+]([O-])=C2C(=[N+]([O-])C1(C)C)c1ccccc1/C2=N\O 4.53%, CC1CCN(c2ccc3c(c2)S(=O)(=O)c2cccc(C(=O)NC4CC4)c2C3=O)CC1 7.81%, Cc1ccc2c(c1)c1c3n2CCCNC3CCC1 (stereo unspecified) -1.03%, CC(C)(C)c1ccc(C(=O)N2CCC(C(=O)NCc3ccncc3)CC2)cc1 1.33%, COc1cc2c(cc1OC)CN(C(=O)CSc1n[nH]c(N)n1)CC2 1.23%, CC(=O)C[C@@H](O)CC(=O)[C@H]1OC(=O)[C@H](C)CCCCc2ccccc21 -11%, CC(NC(=O)CCC(=O)c1ccc(F)cc1)C1CC2CCC1C2 (stereo unspecified) -1.93%, CCN1C(=O)C(CC(=O)Nc2ccc(OC)cc2)N(CCc2ccccc2F)C1=S (stereo unspecified) -7.78%, CC1(C)C2CCC1(CS(=O)(=O)N1CCN(c3ccccc3F)CC1)C(=O)C2 (stereo unspecified) 5.48%, O=C(Nc1cccc2ccccc12)OC1C=CS(=O)(=O)C1 (stereo unspecified) 3.86%, Cc1ccc(C(=O)N2CCN(c3ccc(Cl)cc3)CC2)cc1 1.79%, COC(=O)[C@]1(Cc2ccccc2)N[C@H](CN(C)S(=O)(=O)c2ccc(F)cc2)[C@@H]2C(=O)N(Cc3ccccc3)C(=O)[C@@H]21 0.316%, Cc1ccc2c(c1)C(=O)N1[C@H]3c4cc(Cl)ccc4OC[C@@H]3[C@H](c3ccccc3)[C@]1(C)C(=O)N2 3.11%, CCCCCCn1c(=O)[nH]c2nc3cc(N)ccc3nc2c1=O -3.56% [at 1.6 µM], Cc1ccc(CSc2ncnc3onc(C)c23)cc1 1.62%, C[C@@H]1CCCCCCCCC(=O)OCCN(C(=O)OC(C)(C)C)[C@H](C)CCCCCCCCC(=O)OCCN(C(=O)OC(C)(C)C)[C@H](C)CCCCCCCCC(=O)OCCN1C(=O)OC(C)(C)C 13.4%, C[C@]12c3[nH]c4ccccc4c3CCN1C(=O)C(CC(=O)NCCN1CCOCC1)C[C@@H]2C(=O)N1CCCCC1 (stereo partly specified) -4.06%, COc1cccc(/C=C/C(=O)NCCc2ccc(OC)c(OC)c2)c1 -4.6%, COC(=O)C1=C(C)N(Cc2ccccc2)C(=NCCc2c[nH]c3ccccc23)N[C@H]1c1ccccc1 1.9%, CNC(=O)/C(C#N)=C/c1c(N(Cc2ccccc2)Cc2ccccc2)nc2ccccn2c1=O -4.61% [at 1.6 µM], CCC(C)NCCCOc1ccc(C)cc1OC (stereo unspecified) -7.61%, COC(=O)c1ccccc1NC(=O)CC(NCc1ccccc1)C(=O)O (stereo unspecified) -0.478%, CCn1nnc(NC(=O)c2cc3ccccc3o2)n1 -8.7%, CC(=O)C[C@@H](O)CC(=O)[C@@H]1OC(=O)[C@@H](C)C/C=C\Cc2ccccc21 -0.136%, CSCCC(NS(=O)(=O)c1ccc2ccccc2c1)C(=O)O (stereo unspecified) 2.69%, COc1ccc(N2CCN(C(=O)c3nn(C)c4c3CS(=O)(=O)c3ccccc3-4)CC2)cc1 3.01%, CC(=O)OC(C(=O)NCc1ccc2c(c1)OCO2)c1ccccc1Cl (stereo unspecified) 2.05%, COc1ccccc1NC(=O)COC(=O)/C=C/c1cccs1 6.16%, Nc1nc2n(n1)C(c1cccs1)CC(c1ccccc1)N2 (stereo unspecified) -2.08%, CCCNC(=O)c1ccccc1N1CCN(CCCCN2C(=O)C3CCCCN3C2=O)CC1 (stereo unspecified) -0.153%, O=C(COC(=O)c1ccccc1SCC(=O)N1CCCC1)NC1CCS(=O)(=O)C1 (stereo unspecified) 6.84%, CCOc1ccccc1N(CC(=O)O)S(=O)(=O)c1ccc(C)cc1 4.42%, CCn1c(CCn2ccnc2C)n[nH]c1=S -2.6%, N#CCCn1c(SCC(=O)N2CCN(S(=O)(=O)c3ccccc3)CC2)nc2ccccc21 -3.96%, Oc1cc2ccccc2cc1-c1nnc2n1-c1ccccc1SC2 -2.47%, Cc1cc(=S)c2cccc(C)c2[nH]1 -4.31%, CCOC(=O)N1CCC(N2CCN(c3cc(C)ccc3C)CC2)CC1 -2.4%, CCc1nnc(NC(=O)CCC(=O)N2CCN(Cc3ccc(Cl)cc3)CC2)s1 -3.01%, COc1ccc(S(=O)(=O)N(C)C[C@H]2Oc3ccc(NC(=O)Cn4cnnn4)cc3C(=O)N([C@H](C)CO)C[C@@H]2C)cc1 5.25%, COc1ccc(S(=O)(=O)C(C#N)c2nc3ccccc3nc2N2CCCCC2)cc1 (stereo unspecified) -2.57%, CCOC(=O)Cc1ccc(NC(=O)c2ccc(C(C)(C)C)cc2)cc1 6.61%, Cc1cc(C(=O)Nc2sc3c(c2C#N)CCC(C)C3)no1 (stereo unspecified) 2.2%, O=C(OCc1c(Cl)cccc1Cl)c1cnccn1 13.3%, NC(=O)Cn1nc([N+](=O)[O-])nc1Oc1ccccc1F -7.81%, COc1ccc(CCNC(=O)N2c3ccccc3Sc3ccccc32)cc1 -0.0727%, O=C(Cn1cnc2c(OCc3ccccc3)ncnc21)N1CCN(c2ccccn2)CC1 -2.77%, COc1cc(C(C(=O)NC2CCCCC2)N(Cc2cccs2)C(=O)Cc2c[nH]c3ccccc23)cc(OC)c1OC (stereo unspecified) 6.08%, CCOc1ccc(N=Cc2c(O)n(-c3cccc(C)n3)c(=O)c3ccccc23)cc1 6.77%, CCOC(=O)C1=C(C)N(C)C(C)=C(C(=O)OCC)C1c1cccnc1 4.58%, COc1cc2c(cc1OC)C(=O)N1[C@H]3c4cc(C)ccc4OC[C@@H]3[C@H](c3ccccc3)[C@]1(C)C(=O)N2 -0.503%, COc1ccc(NC(NC(=O)c2cccnc2)C(Cl)(Cl)Cl)cc1 (stereo unspecified) 0.574%
